# Measurements as given in the supplement of paper PMC12067093, “Discovery and optimisation of a covalent ligand for TRIM25 and its application to targeted protein ubiquitination” (Chemical Science, 2025).
# Amino acid sequences for entries named in this document (tags omitted). A change or cut given only in a name is not applied to a line headed by its entry.
# UniProt Q9UBL3, whole entry, looked up: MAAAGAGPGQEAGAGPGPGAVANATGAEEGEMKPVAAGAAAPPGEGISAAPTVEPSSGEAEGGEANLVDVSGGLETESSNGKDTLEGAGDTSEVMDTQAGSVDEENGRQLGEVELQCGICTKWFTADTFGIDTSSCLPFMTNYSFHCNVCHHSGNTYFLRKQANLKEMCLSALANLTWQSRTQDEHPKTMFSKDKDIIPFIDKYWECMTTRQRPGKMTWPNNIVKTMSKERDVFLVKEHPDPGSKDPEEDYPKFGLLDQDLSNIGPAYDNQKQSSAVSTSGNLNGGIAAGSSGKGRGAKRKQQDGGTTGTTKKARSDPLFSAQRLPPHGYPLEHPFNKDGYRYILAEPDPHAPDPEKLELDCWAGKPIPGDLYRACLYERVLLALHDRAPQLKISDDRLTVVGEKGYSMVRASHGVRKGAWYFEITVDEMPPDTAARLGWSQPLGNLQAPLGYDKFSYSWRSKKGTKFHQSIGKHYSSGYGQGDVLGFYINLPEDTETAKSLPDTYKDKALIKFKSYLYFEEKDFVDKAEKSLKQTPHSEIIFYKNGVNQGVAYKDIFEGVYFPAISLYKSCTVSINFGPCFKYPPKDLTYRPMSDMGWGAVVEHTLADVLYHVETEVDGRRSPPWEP
# UniProt P00966: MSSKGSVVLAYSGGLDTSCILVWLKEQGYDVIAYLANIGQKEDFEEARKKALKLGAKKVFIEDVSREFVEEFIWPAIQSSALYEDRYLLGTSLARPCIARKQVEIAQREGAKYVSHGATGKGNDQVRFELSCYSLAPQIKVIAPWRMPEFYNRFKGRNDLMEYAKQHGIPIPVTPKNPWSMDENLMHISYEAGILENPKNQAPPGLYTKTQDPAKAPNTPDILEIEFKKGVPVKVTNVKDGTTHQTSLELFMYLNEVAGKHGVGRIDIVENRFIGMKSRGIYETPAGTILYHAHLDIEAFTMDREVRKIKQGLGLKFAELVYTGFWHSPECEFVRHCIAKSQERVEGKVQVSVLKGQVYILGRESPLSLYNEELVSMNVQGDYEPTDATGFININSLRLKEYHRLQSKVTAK
# UniProt Q9ULI0: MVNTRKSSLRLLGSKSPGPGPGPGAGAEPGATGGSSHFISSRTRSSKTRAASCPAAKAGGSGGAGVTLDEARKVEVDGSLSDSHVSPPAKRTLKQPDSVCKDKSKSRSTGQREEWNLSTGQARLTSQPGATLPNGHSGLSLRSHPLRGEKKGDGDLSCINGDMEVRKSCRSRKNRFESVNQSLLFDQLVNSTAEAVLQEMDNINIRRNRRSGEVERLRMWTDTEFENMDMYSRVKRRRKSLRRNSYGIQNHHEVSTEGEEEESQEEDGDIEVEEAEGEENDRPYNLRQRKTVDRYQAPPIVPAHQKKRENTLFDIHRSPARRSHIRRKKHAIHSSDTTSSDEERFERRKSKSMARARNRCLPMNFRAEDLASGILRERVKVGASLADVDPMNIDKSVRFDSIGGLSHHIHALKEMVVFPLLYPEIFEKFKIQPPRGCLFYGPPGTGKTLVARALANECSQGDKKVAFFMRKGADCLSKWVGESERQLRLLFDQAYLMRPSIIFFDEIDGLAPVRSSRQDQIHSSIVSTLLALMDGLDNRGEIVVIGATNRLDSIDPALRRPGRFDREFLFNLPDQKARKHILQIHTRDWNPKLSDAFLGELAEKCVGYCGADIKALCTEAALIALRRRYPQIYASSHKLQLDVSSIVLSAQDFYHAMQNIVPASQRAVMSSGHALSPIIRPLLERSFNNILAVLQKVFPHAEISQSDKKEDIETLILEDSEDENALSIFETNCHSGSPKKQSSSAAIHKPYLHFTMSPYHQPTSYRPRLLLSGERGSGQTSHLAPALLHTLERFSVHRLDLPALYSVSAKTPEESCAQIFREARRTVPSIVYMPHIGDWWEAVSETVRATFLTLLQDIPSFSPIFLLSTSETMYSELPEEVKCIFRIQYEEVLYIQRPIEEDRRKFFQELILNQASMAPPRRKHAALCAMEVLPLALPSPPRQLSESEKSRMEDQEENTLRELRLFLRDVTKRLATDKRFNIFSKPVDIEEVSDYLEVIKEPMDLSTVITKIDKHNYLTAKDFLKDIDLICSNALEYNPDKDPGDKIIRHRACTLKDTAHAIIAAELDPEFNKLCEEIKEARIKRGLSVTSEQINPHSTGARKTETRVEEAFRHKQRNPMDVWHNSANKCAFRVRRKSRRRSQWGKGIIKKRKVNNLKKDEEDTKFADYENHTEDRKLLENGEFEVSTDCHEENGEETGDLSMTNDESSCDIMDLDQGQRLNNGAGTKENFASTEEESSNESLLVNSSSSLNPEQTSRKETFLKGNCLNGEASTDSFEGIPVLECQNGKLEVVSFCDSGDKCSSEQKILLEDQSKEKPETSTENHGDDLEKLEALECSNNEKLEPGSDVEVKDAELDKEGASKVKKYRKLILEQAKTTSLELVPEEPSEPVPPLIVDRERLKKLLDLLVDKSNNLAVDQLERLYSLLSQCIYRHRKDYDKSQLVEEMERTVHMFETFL
# UniProt P46100: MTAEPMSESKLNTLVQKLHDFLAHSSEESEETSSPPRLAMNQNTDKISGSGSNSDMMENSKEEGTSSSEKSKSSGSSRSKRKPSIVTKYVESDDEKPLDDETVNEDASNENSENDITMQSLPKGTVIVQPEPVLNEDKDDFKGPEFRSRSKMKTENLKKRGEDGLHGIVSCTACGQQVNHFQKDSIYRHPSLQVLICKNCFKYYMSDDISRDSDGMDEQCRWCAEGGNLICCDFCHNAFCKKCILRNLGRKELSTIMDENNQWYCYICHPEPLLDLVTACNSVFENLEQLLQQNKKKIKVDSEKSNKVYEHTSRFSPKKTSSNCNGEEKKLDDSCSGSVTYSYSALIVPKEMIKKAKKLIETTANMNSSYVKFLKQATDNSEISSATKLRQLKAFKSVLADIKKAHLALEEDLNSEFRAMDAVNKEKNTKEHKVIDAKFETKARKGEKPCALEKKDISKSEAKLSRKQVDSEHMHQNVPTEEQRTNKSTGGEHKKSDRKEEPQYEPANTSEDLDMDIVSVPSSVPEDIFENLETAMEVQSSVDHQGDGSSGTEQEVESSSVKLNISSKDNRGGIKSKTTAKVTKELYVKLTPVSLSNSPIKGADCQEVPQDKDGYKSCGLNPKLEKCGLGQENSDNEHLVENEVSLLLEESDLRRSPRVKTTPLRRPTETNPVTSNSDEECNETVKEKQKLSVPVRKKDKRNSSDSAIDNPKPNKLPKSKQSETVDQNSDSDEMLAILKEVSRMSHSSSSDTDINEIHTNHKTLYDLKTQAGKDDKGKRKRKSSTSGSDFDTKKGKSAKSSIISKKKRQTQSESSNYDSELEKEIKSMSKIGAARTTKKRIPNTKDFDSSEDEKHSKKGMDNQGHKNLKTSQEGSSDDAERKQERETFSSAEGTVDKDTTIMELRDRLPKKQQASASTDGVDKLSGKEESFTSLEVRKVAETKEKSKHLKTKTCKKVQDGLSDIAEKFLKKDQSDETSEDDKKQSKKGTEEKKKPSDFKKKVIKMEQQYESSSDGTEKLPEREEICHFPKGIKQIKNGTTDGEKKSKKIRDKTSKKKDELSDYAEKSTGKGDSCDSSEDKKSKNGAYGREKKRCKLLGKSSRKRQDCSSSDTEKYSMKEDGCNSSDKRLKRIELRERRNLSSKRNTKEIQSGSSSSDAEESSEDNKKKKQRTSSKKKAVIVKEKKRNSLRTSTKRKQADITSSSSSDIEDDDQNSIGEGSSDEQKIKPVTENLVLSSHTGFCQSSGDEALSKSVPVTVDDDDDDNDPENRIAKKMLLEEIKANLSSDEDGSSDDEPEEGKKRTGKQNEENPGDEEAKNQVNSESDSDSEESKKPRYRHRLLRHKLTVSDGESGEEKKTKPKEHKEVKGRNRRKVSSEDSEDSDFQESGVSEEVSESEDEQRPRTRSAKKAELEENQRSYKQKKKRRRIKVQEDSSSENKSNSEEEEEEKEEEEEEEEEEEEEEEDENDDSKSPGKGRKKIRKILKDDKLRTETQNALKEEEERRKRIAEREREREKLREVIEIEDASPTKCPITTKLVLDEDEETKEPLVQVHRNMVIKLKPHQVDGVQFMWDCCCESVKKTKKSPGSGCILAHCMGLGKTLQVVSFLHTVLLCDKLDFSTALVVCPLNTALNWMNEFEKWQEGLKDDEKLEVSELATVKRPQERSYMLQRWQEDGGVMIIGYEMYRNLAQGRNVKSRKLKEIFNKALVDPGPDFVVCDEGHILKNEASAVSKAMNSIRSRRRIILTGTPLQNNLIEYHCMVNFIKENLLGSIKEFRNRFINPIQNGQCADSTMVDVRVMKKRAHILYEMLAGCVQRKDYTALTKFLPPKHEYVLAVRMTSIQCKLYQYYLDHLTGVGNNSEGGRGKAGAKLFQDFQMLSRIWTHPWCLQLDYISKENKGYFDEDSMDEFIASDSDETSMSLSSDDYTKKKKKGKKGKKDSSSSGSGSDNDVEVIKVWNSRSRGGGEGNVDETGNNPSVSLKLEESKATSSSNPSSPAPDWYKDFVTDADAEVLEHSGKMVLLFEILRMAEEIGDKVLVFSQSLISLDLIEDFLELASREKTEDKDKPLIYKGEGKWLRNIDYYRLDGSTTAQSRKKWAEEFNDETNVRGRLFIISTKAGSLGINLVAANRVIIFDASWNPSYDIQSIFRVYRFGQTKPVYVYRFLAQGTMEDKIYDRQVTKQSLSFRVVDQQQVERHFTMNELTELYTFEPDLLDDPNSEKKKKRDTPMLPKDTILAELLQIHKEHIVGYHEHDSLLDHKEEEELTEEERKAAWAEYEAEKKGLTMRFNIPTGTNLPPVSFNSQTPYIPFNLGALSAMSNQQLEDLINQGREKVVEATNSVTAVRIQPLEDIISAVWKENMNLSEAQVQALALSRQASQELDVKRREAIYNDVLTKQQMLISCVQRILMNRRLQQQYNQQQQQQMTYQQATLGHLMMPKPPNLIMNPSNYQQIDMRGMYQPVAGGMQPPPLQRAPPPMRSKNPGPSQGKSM
# UniProt P16615: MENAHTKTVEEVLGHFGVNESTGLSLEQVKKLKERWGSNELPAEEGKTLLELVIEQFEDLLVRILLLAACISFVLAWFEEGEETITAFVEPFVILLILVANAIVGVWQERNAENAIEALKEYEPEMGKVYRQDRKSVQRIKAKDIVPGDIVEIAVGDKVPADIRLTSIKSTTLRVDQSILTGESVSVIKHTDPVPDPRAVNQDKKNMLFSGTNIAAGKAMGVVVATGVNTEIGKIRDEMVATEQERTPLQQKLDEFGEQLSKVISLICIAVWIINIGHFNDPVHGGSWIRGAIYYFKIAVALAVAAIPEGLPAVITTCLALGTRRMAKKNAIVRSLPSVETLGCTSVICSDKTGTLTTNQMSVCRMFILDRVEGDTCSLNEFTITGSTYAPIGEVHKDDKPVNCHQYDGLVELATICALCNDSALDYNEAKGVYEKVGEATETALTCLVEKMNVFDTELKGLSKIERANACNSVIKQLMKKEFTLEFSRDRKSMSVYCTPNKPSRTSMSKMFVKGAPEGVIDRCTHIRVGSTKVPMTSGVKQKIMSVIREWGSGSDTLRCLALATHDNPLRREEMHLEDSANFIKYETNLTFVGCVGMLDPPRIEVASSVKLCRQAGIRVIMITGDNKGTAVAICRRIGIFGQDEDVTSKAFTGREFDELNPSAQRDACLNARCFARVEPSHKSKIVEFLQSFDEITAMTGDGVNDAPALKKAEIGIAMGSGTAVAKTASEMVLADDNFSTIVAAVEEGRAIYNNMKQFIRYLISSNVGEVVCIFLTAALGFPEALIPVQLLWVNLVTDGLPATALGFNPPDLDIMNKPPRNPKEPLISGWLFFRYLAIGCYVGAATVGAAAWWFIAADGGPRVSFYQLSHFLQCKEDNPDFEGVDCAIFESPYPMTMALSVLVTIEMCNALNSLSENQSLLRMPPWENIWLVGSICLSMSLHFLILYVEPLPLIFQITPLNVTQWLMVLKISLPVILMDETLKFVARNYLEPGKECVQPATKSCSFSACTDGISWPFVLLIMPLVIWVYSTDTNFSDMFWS
# UniProt O75947: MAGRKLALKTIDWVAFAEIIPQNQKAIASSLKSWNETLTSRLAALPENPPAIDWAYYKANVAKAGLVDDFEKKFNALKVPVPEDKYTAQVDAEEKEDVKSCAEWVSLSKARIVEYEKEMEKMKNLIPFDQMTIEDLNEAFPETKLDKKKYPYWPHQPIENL
# The list shows a part of the results.
# Compound: Cc1cc(ccc1-c1ccccc1)C(=O)N1CCCN(CC1)C(=O)CCl [compound 10]
# Assay: probe-labelled cysteine peptide fold change vs DMSO (competition) (log2 fold change); higher = less target engagement (more negative = stronger competition)
# Settings: THP-1, incubation time: 4 h
# 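Note: competitive profiling in live THP-1 cells: cysteine peptides tagged with an iodoacetamide desthiobiotin (IA-DTB) probe, intensity after compound treatment relative to DMSO-treated cells.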
Target,probe-labelled cysteine peptide fold change (10 µM),probe-labelled cysteine peptide fold change (50 µM)
ASH2L_Q9UBL3_362_LELDCWAGKPIPGDLYR (UniProt Q9UBL3),-0.104,0.0484
ASS1_P00966_331_FAELVYTGFWHSPECEFVR (UniProt P00966),-0.00187,0.0576
ATAD2B_Q9ULI0_100_QPDSVCK (UniProt Q9ULI0),0.251,-0.0848
ATAD2_Q6PL18_1057_DIDLICSNALEYNPDRDPGDR (UniProt Q6PL18),0.188,0.142
ATRX_P46100_1242_IKPVTENLVLSSHTGFCQSSGDEALSK (UniProt P46100),-0.15,-0.661
ATP2A2_P16615_364_TGTLTTNQMSVCR (UniProt P16615),0.259,-0.0183
ATP5PD_O75947_101_SCAEWVSLSK (UniProt O75947),-0.646,-0.432
ASAP1_Q9ULH1_219_LFQLQMCEYLIK (UniProt Q9ULH1),0.163,0.331
ATP13A1_Q9HD20_18_AAAAAVGNAVPCGARPCGVRPDGQPK (UniProt Q9HD20),-0.168,-0.519
